Measured values from patent US11369609B2, “Small molecule Wnt inhibitor as treatment for dyslipidemia” (Yale University, priority 2019, dated 2022).

The chains behind the UniProt entries cited, without tags or fusion partners. Where a name states a change or a piece, a line headed by the entry shows the natural chain unless it says otherwise.
UniProt P06537: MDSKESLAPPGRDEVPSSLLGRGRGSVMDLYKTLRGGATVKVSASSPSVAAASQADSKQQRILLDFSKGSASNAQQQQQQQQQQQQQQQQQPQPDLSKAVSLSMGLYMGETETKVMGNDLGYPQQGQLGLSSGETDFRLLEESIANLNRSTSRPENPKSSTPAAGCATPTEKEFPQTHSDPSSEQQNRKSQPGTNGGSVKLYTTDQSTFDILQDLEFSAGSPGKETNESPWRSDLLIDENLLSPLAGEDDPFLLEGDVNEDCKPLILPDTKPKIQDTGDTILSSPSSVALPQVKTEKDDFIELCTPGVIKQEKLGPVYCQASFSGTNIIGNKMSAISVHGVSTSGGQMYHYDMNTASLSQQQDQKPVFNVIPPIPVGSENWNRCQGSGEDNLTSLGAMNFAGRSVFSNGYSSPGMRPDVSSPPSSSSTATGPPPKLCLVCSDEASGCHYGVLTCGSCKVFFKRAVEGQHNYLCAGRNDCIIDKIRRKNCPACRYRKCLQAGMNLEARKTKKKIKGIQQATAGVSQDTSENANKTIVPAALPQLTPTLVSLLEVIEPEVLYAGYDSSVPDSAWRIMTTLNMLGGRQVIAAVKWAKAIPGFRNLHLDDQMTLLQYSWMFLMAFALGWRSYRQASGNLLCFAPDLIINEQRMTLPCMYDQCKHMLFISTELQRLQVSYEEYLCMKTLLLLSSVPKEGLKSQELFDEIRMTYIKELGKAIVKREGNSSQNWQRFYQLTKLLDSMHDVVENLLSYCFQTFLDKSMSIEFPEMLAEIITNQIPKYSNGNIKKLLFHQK

Experiments:
GR [1] = molecular target: T1, GR (Mus musculus, UniProt P06537); details: control siRNA+DEX vs input DNA
GR [2] = molecular target: T1, GR; details: DEX 100 nM for 18 hours, significant p and q

GR binding at ChIP-seq peak locations of Wnt pathway genes (Tcf7l2, Arid1b, Smad4) (GR [1]): massively enhanced binding | number of DEX-responsive genes (RNA-seq) (GR [2]): 231 genes
Structure (SMILES): C[C@@H]1C[C@H]2[C@@H]3CCC4=CC(=O)C=C[C@]4(C)[C@@]3(F)[C@@H](O)C[C@]2(C)[C@@]1(O)C(=O)COP(=O)(O)O [DEX, Dexamethasone phosphate]
